According to US10711314B2, “Methods for diagnosing IDH-mutant cell proliferation disorders” (Agios Pharmaceuticals, Inc., priority 2009, dated 2020):
Like-named read-outs stand apart in the source and are kept apart here. For at least one compound, name, drawing or mass did not settle the structure.

Chains of the proteins cited; added tags and fusions are not shown.
UniProt O75874, whole entry R132H: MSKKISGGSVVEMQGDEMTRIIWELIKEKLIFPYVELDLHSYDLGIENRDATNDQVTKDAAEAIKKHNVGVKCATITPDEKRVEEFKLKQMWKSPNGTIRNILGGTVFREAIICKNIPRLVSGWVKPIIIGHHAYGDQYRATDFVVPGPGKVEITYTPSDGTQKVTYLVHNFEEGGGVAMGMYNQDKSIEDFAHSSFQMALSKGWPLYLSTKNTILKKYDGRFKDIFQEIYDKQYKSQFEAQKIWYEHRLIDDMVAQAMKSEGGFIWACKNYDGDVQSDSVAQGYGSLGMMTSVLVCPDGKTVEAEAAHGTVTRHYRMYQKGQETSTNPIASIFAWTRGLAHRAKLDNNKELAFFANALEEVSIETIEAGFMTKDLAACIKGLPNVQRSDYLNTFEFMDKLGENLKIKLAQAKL
UniProt O75874, whole entry R132S: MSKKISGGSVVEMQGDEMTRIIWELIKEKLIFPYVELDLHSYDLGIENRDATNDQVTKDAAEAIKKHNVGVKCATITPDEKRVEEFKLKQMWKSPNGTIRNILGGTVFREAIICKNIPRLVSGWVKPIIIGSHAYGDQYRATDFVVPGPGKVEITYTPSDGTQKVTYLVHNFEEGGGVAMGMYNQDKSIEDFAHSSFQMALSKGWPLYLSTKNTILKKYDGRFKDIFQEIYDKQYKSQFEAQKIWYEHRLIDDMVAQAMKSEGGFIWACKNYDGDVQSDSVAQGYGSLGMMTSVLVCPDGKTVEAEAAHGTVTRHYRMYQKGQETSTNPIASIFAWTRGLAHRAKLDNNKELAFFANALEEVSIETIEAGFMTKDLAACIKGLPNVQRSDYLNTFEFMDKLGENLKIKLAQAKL

Tests used:
recurrent glioma = recurrent glioma patients; cited from earlier work
glioblastoma multiforme [1] = settings: adjuvant and concomitant temozolomide with radiation, cited from earlier work
glioblastoma multiforme [2] = settings: cited from earlier work
IDH1 R132H = target: T1, IDH1 R132H (Homo sapiens, UniProt O75874, R132H); experiment: Inhibition of oxidative decarboxylation of isocitrate to α-KG by IDH1 R132H; type: biochemical; settings: R132H vs wild-type
T1 construct: The resultant fragments for IDH1 (full length) and IDH2 (residues 40-452) were cloned into vector pET41a; made in house; host or cells: E. coli
Protocol: (§1) In these reactions, the substrate was varied while the cofactor was held constant at 500 uM. All reactions were performed in 150 mM NaCl, 20 mM Tris-Cl, pH 7.5, 10% glycerol, and 0.03% (w/v) BSA). Reaction progress was followed by spectroscopy at 340 nM monitoring the change in oxidation state of the cofactor. Sufficient enzyme was added to give a linear change in absorbance for 10 minutes.
(§2) A well-known regulatory mechanism for control of metabolic enzymes is feedback inhibition, in which the product of the reaction acts as a negative regulator for the generating enzyme.
(§3) Final concentrations: Tris 7.5 20 mM, NaCl 150 mM, MnCl2 2 mM, Glycerol 10%, BSA 0.03%, NADP 0.5 mM, IDH1 wt 1.5 ug/ml, IDH1R132S 30 ug/ml, IDH1R132H 60 ug/ml, DL-isocitrate (5-650 uM).

IDH1 R132S = target: T2, IDH1 R132S (Homo sapiens, UniProt O75874, R132S); experiment: Inhibition of oxidative decarboxylation of isocitrate to α-KG by IDH1 R132S; type: biochemical; settings: R132S vs wild-type
T2 construct: The resultant fragments for IDH1 (full length) and IDH2 (residues 40-452) were cloned into vector pET41a; made in house; host or cells: E. coli Rosetta
Protocol: as §1, §2, §3

[3] = patients with MGMT promoter methylation
[4] = patients without MGMT promoter methylation

Row | SMILES | 6-month survival (recurrent glioma) | median progression-free survival (glioblastoma multiforme [1]; radiation alone 5 mo) | likelihood of being alive in 2 years (glioblastoma multiforme [1]; radiation alone 10%) | overall survival (glioblastoma multiforme [1]; radiation alone 12.1 mo) | 2-year survival rate (glioblastoma multiforme [2]; [3]) | median survival (glioblastoma multiforme [2]; [3]) | 2-year survival rate (glioblastoma multiforme [2]; [4]) | median survival (glioblastoma multiforme [2]; [4]) | increase in sensitivity to feedback inhibition as compared to the wild-type enzyme (IDH1 R132H) | increase in sensitivity to feedback inhibition as compared to the wild-type enzyme (IDH1 R132S)
1 | Cn1nnc2c(C(N)=O)ncn2c1=O [temozolomide] | 21% | 6.9 mo | 26% | 14.6 mo | 46% | 21.7 months | 13.8% | 12.7 months |  | 
2 | O=C(O)CCC(=O)C(=O)O [α-KG, α-ketoglutarate] |  |  |  |  |  |  |  |  | 20 fold | 13 fold
